Consider 50 sequences from PMC7862700.

Chains of the proteins cited; added tags and fusions are not shown. Lines headed by an entry give the natural chain unless they say otherwise; changes in a name come on top.
UniProt Q01892: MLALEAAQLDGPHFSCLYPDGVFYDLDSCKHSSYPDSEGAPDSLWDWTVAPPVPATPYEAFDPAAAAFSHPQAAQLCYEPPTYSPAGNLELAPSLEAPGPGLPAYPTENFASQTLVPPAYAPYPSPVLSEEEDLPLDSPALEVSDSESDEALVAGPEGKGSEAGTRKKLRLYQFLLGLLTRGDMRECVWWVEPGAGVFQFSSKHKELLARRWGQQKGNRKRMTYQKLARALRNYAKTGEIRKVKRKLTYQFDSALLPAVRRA
UniProt P41161: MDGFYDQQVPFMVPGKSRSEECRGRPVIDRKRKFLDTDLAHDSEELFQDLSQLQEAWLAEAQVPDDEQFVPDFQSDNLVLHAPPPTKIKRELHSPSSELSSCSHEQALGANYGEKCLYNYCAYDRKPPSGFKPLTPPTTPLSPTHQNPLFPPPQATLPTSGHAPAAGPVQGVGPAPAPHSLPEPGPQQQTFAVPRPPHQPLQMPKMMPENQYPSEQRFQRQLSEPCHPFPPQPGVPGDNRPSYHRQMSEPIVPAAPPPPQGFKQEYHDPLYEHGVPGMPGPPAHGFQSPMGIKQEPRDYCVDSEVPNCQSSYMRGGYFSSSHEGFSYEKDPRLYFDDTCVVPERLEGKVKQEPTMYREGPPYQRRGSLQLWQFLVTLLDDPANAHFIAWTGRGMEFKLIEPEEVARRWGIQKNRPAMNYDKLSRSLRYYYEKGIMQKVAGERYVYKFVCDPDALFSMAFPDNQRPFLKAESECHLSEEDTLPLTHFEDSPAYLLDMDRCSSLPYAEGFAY
UniProt Q99607: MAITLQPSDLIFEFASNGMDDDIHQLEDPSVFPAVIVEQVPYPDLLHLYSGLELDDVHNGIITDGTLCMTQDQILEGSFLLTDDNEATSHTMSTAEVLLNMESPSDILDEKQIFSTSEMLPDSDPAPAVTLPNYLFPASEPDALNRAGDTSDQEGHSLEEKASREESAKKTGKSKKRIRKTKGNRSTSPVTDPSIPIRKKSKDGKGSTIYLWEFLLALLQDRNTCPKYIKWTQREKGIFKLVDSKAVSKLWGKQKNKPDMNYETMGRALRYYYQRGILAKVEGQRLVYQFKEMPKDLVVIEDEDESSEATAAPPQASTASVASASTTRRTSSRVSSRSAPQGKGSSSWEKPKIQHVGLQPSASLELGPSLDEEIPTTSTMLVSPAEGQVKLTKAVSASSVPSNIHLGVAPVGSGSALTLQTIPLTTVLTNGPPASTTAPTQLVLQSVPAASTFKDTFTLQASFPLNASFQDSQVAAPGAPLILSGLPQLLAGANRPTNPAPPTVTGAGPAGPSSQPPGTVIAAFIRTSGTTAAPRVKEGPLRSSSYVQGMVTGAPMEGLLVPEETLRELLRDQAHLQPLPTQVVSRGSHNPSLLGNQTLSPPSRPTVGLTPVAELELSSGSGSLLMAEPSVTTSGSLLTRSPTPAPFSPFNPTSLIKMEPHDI

Holding throughout (assay): DAPPL (digital affinity profiling via proximity ligation, sequencing)
Common to all, as to conditions: 10 mM Tris-HCl pH 7.5, 50 mM NaCl, 1 mM DTT, 4% glycerol, room temperature, 30 min; GST-TFs on glutathione beads, 16-mer random dsDNA library, 0.1% …; high values mean tight binding; double strand, one strand shown; scale: fold enrichment (6-mer frequency, TF over GST control)

The target in test [1] is T1, FLI1 (UniProt Q01543).
T1 sequence: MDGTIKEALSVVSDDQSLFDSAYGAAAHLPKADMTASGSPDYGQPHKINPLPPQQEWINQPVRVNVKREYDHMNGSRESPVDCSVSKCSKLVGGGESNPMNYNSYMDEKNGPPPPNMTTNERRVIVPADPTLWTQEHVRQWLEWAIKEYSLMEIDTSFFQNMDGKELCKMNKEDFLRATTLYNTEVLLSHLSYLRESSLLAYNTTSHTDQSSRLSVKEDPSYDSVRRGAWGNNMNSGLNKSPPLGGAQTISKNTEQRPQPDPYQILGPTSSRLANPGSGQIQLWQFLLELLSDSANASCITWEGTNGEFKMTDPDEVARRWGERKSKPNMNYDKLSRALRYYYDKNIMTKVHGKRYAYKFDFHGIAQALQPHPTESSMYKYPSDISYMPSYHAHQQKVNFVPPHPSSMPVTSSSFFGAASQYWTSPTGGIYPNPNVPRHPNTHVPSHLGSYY

For test [2], the target named is T2, EHF (UniProt Q9NZC4).
T2 sequence: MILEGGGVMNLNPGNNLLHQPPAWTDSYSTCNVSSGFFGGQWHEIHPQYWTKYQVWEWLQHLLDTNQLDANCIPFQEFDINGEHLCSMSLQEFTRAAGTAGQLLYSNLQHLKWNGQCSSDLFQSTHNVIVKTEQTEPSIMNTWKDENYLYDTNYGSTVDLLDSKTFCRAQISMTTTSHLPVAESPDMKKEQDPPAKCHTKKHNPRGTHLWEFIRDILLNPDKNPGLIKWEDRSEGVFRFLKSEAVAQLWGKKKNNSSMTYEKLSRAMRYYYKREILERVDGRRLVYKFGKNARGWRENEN

Test [3] concerns the target SPIB (UniProt Q01892).
Test [4] concerns the target ETV5 (UniProt P41161).
The target of test [5] is ELF4 (UniProt Q99607).
Test [6] addresses T3, ETV3L (UniProt Q6ZN32).
T3 sequence: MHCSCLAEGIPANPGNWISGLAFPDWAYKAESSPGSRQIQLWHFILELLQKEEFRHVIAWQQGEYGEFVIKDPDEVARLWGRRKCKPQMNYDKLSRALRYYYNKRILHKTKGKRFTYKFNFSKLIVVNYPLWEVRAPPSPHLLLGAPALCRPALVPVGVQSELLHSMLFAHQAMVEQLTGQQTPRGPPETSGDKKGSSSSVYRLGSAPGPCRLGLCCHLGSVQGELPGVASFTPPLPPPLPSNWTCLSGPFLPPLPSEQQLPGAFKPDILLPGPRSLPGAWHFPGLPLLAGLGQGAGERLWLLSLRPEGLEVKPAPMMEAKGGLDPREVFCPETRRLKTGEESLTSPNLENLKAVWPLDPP

This is a selection; strong and weak results do not stand in their true shares. At the low end of the ranking the order means little.

Regarding GTTCAG, the binding signal in test [1] amounted to 0.932; in test [2], 0.849; in test [3], 0.867; in test [4], 0.875; in test [5], 0.859; in test [6], 0.909.
Take GTGCGC: the binding signal in test [1] turned out to be 1.02; in test [2] it was 1; in test [3] it was 0.961; in test [4], 0.953; in test [5], 0.967; in test [6], 0.904.
For the sequence GACCGA, the binding signal came to 0.905 in test [1]; 0.836 in test [2]; 0.735 in test [3]; 0.824 in test [4]; 0.83 in test [5]; 0.909 in test [6].
TAGGCA: the binding signal in test [1] amounted to 0.994; in test [2], 0.959; in test [3], 1.02; in test [4], 0.966; in test [5], 1.01; in test [6], 1.02.
TTTAGA: the binding signal was found to be 0.976 in test [1]; 0.995 in test [2]; 0.993 in test [3]; 0.894 in test [4]; 0.941 in test [5]; 0.964 in test [6].
In the case of GGCATA, the binding signal in test [1] was determined as 0.876; in test [2] it was 0.89; in test [3], 0.866; in test [4], 0.857; in test [5], 0.916; in test [6] it was 0.933.
Turning to AACGGT, the binding signal worked out at 0.969 in test [1]; 0.954 in test [2]; 0.97 in test [3]; 0.969 in test [4]; 1.03 in test [5]; 0.949 in test [6].
Regarding TGAAGG, the binding signal is 0.913 in test [1]; 0.932 in test [2]; 0.919 in test [4]; 0.913 in test [5]; 0.972 in test [6].
With GTGTTA, the binding signal came out at 0.997 in test [1]; 0.912 in test [2]; 0.935 in test [3]; 0.98 in test [4]; 0.969 in test [5]; 0.997 in test [6].
In the case of ACTGGG, the binding signal in test [1] is 0.907; in test [2], 0.848; in test [3], 0.816; in test [4], 0.817; in test [5] it was 0.84; in test [6] it was 0.833.
With ATAGAC, the binding signal in test [1] came to 0.914; in test [2] it was 0.881; in test [3] it was 0.956; in test [4] it was 0.987; in test [5], 1.01; in test [6], 0.987.
Turning to CGAAGT, the binding signal was 0.958 in test [1]; 0.924 in test [2]; 0.941 in test [3]; 0.906 in test [4]; 0.954 in test [5]; 0.883 in test [6].
As for GATAAC, the binding signal came to 0.98 in test [1]; 0.955 in test [2]; 0.964 in test [3]; 0.934 in test [4]; 0.969 in test [5]; 0.962 in test [6].
Take GCGACG: the binding signal in test [1] was 0.943; in test [2], 0.894; in test [3] it was 0.965; in test [4], 0.861; in test [5] it was 0.947; in test [6], 0.94.
On to GTATCG, for which the binding signal stood at 0.951 in test [1]; 0.926 in test [2]; 0.917 in test [3]; 0.879 in test [4]; 0.903 in test [5]; 0.786 in test [6].
On to TGAACG, for which the binding signal is 0.953 in test [1]; 0.959 in test [2]; 0.921 in test [3]; 0.944 in test [4]; 0.996 in test [5]; 0.927 in test [6].
Regarding TCGTCG, the binding signal is 0.966 in test [1]; 0.893 in test [2]; 0.919 in test [3]; 0.929 in test [4]; 0.919 in test [5]; 0.872 in test [6].
On to AGGGTT, for which the binding signal in test [1] amounted to 0.953; in test [2], 0.947; in test [3], 0.974; in test [4] it was 0.973; in test [5], 1.03; in test [6], 0.912.
In the case of CAAACG, the binding signal came out at 0.996 in test [1]; 0.957 in test [2]; 0.962 in test [3]; 0.973 in test [4]; 0.961 in test [5]; 0.914 in test [6].
Consider TTTCAT, for which the binding signal in test [1] is 1.11; in test [4] it was 1.09; in test [5], 1.2; in test [6] it was 1.15.
For the sequence GTTCGT, the binding signal in test [1] is 0.922; in test [2], 0.931; in test [3], 0.949; in test [4] it was 0.972; in test [5], 0.954; in test [6] it was 0.982.
With CGACAG, the binding signal in test [1] turned out to be 0.956; in test [2], 0.903; in test [3], 0.877; in test [4], 0.928; in test [5] it was 0.943; in test [6] it was 0.986.
With CGCGCA, the binding signal was determined as 0.964 in test [1]; 1.07 in test [2]; 0.921 in test [4]; 0.974 in test [5]; 0.994 in test [6].
Take AGTAAC: the binding signal in test [1] came out at 1.02; in test [4], 1.03; in test [5], 0.974; in test [6], 0.978.
Turning to AGATCA, the binding signal in test [1] was found to be 0.809; in test [2], 0.92; in test [3] it was 0.841; in test [4], 0.827; in test [5], 0.854; in test [6], 0.88.
For the sequence CATTAG, the binding signal was determined as 0.987 in test [1]; 1 in test [2]; 0.999 in test [3]; 0.896 in test [4]; 0.98 in test [5]; 0.917 in test [6].
As for CGGCCC, the binding signal in test [1] was determined as 1.05; in test [2], 0.912; in test [4] it was 0.904; in test [5], 1.03; in test [6], 0.968.
Take CGCAAA: the binding signal worked out at 0.986 in test [1], 0.953 in test [4], 0.971 in test [5] and 0.941 in test [6].
With GATGGA, the binding signal in test [1] was 0.877; in test [2] it was 0.883; in test [3], 0.935; in test [4], 0.882; in test [5], 0.869; in test [6], 0.863.
ACGTCT: the binding signal is 1.13 in test [1]; 1.13 in test [2]; 1.12 in test [4]; 1.28 in test [5]; 1.29 in test [6].
For the sequence ACCCGT, the binding signal in test [1] stood at 0.823; in test [2], 0.934; in test [3], 0.885; in test [4], 0.91; in test [5], 0.86; in test [6], 0.878.
As to GAATAG, the binding signal in test [1] turned out to be 0.877; in test [2], 0.952; in test [3], 0.953; in test [4], 0.864; in test [5] it was 0.949; in test [6] it was 0.993.
With GTGTCT, the binding signal in test [1] was 0.998; in test [2], 1.06; in test [3], 1.03; in test [4], 0.989; in test [5], 1.02.
TGGTCG: the binding signal was found to be 0.952 in test [1], 0.982 in test [2], 1.06 in test [4] and 0.991 in test [5].
GGCATT: the binding signal in test [1] came out at 1.08; in test [3], 0.974; in test [4], 1.05; in test [5], 0.981.
Regarding GGCCTG, the binding signal amounted to 0.945 in test [1]; 0.783 in test [2]; 0.982 in test [3]; 0.882 in test [4]; 0.912 in test [5].
For the sequence TGGGCG, the binding signal in test [1] is 0.84; in test [2] it was 0.928; in test [3], 0.869; in test [4], 0.84; in test [5], 0.948; in test [6], 0.898.
Regarding TTCAGA, the binding signal in test [1] came to 0.899; in test [2], 0.933; in test [3], 0.899; in test [4] it was 0.883; in test [5], 0.967; in test [6] it was 0.99.
Consider GACCCA, for which the binding signal in test [1] was 0.915; in test [2], 0.894; in test [3], 0.882; in test [4], 0.897; in test [5], 0.911; in test [6] it was 0.901.
As to TACCTG, the binding signal in test [1] is 1.13; in test [3], 1.25; in test [4] it was 1.19; in test [5], 1.14; in test [6], 1.09.
The like results for AAGGTC were, in that order, 0.959, 0.997, 0.998, 0.996 and 0.938.
The like results for AGAATG were, in that order, 0.938, 0.901, 0.941, 0.952 and 0.987.
AGCCCA: the binding signal in test [1] was found to be 0.932; in test [2], 0.934; in test [3], 0.965; in test [4] it was 0.99; in test [5], 1; in test [6] it was 0.885.
Regarding CAAGCC, the binding signal in test [1] turned out to be 0.931; in test [2], 0.948; in test [3] it was 0.946; in test [4], 0.98; in test [5], 0.985; in test [6], 0.942.
With CAAAAG, the binding signal in test [1] was 0.969; in test [3], 0.989; in test [4], 0.971; in test [5], 0.996; in test [6] it was 0.958.
For GGCAGC, the binding signal in test [1] came to 0.877; in test [2], 0.987; in test [3], 0.971; in test [4], 0.97; in test [5], 0.936; in test [6], 0.971.
Take CGAGAT: the binding signal came to 0.849 in test [1]; 0.917 in test [2]; 0.877 in test [3]; 0.86 in test [4]; 0.909 in test [5]; 0.848 in test [6].
In the case of ATAGGG, the binding signal was 0.955 in test [1]; 0.993 in test [3]; 1.03 in test [4]; 0.904 in test [5]; 0.972 in test [6].
The like results for GATACC were, in that order, 0.889, 0.924, 0.944, 0.957 and 0.937.
The like results for GATTGC were, in that order, 0.892, 1.05, 0.996, 0.986 and 1.02.
